Source: publication PMC7865483
No constants are given. Whether binding was seen depends on the method and setting. In cells and extracts the contact can be indirect. Some binding calls cover weakened binding; strength is not graded here.

By UniProt entry, the sequences of proteins in these tests, tags left out.
UniProt Q8TE04: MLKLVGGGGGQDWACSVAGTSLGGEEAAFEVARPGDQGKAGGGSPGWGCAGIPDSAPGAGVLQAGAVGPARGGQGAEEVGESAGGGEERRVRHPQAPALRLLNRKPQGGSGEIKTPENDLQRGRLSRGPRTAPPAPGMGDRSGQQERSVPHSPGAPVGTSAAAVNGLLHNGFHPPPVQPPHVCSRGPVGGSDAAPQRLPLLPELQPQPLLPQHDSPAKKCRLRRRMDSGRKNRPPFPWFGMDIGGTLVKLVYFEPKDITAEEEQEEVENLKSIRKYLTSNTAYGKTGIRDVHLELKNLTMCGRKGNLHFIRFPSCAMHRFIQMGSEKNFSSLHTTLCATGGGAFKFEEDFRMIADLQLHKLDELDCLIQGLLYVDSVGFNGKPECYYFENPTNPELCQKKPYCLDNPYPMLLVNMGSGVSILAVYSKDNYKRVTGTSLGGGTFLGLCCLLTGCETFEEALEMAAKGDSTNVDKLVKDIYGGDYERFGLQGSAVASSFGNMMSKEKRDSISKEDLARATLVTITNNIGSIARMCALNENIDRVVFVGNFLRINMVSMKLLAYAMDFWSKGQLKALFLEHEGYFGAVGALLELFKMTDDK
UniProt Q9HAB8: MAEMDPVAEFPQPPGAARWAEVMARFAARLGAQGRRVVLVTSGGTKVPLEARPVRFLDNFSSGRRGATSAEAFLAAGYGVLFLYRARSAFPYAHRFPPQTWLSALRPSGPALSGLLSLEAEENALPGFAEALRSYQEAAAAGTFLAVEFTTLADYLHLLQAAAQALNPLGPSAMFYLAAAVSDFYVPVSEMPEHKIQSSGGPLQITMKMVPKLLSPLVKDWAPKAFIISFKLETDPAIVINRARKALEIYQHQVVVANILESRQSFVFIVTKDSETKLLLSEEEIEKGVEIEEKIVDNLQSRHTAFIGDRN

Key:
[1] = molecular target: Pank1 (pantothenate kinase 1), endogenous in A549 cells (human (endogenous in A549)) (UniProt Q8TE04); test: proximity ligation; in situ PLA (Duolink) on fixed A549 cells, endogenous proteins; cells serum-starved for 24 h, or serum-starved and then treated with 500 μM H2O2
[2] = molecular target: Pank1 (pantothenate kinase 1), endogenous in A549 cells (human (endogenous in A549)) (UniProt Q8TE04); test: condition: only exponentially growing cells in full medium, without serum starvation or H2O2; proximity ligation; in situ PLA (Duolink) on fixed A549 cells, endogenous proteins; control cells growing exponentially in full medium, not starved or treated

binding [1]: binds
binding [2]: no binding
Substance: 4′-phosphopantothenoylcysteine synthetase (PPCS) (from UniProt Q9HAB8 1-311) (enzyme)
